# Test results reported in doi:10.1101/2021.01.29.428592.
# Molecular target: 3xFLAG-tagged RhlE1 (PA3950), DEAD-box RNA helicase of Pseudomonas aeruginosa (P. aeruginosa PAO1) (UniProt Q9HX66)
# Experiment: affinity purification with mass spectrometry
substance,measurement,value
DnaK chaperone of P. aeruginosa (from UniProt Q9HV43 1-637),binding,binds

# No constants are given. Whether binding was seen depends on the method and setting. Binding seen in cells or lysates may run through a third protein. A yes stands for co-enrichment or nearness to the bait. Other partners may have been found.
